Data: article PMC9278858

T1: TAP-Sen1ΔNTD (Sen1 lacking the N-terminal domain, TAP-tagged, expressed from pGAL1) (S. cerevisiae) (UniProt Q00416)
T1 sequence: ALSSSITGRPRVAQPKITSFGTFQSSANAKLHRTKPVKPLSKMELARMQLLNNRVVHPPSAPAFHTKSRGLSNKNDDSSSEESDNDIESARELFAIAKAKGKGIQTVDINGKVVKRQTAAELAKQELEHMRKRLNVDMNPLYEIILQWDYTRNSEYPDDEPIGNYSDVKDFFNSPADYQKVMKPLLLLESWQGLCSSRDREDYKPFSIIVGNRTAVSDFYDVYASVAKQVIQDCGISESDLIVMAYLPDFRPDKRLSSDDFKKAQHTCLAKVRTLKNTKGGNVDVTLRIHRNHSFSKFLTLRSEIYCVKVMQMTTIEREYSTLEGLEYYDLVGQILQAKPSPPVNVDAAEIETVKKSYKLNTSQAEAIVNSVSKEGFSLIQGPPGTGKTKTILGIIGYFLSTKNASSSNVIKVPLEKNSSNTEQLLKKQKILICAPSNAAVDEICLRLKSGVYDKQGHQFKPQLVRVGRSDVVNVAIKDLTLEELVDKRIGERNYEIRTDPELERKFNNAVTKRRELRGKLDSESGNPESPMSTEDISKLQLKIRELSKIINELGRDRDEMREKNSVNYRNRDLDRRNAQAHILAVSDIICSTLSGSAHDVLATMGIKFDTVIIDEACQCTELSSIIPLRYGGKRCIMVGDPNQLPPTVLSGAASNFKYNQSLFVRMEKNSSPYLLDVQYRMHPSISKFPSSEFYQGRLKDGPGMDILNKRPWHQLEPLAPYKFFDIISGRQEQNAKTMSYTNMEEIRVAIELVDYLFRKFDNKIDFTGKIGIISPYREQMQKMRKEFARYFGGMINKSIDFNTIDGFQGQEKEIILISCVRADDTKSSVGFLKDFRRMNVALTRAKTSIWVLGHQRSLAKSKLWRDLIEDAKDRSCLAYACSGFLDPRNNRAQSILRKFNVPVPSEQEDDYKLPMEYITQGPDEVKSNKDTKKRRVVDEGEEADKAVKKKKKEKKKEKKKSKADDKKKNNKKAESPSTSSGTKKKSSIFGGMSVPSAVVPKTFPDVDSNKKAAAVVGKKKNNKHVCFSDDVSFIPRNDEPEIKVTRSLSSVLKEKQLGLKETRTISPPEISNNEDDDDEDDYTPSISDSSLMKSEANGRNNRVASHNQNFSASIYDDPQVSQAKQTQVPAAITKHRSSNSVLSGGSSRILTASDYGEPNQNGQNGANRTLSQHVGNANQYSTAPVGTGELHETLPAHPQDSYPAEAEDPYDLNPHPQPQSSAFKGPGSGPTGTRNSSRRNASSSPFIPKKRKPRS

T2: TAP-NTD (isolated N-terminal domain of Sen1, TAP-tagged, expressed from pGAL1) (S. cerevisiae) (UniProt Q00416)
T2 sequence: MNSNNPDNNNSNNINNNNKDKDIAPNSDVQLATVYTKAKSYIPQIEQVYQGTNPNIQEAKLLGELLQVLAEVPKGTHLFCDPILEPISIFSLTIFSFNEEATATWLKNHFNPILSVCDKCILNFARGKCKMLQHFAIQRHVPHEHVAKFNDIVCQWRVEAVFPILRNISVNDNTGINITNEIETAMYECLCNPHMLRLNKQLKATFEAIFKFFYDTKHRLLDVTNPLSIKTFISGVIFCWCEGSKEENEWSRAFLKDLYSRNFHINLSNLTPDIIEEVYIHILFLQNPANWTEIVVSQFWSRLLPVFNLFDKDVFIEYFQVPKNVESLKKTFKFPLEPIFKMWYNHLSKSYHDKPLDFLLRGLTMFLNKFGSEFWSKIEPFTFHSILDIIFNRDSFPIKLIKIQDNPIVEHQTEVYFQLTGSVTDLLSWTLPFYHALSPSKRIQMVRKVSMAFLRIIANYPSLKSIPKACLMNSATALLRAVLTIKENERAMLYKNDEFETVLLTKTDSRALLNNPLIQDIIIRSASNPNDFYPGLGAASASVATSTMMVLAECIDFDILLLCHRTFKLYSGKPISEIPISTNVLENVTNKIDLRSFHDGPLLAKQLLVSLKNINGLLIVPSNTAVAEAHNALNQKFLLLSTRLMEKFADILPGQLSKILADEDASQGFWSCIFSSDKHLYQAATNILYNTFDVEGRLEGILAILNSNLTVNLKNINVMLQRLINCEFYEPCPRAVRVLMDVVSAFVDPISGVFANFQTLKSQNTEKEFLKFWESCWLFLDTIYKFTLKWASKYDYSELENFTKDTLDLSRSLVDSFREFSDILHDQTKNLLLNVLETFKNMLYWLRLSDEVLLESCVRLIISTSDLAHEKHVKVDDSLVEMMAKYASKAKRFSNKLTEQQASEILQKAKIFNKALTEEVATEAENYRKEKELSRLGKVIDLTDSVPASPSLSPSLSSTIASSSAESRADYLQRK


Experiments:
[1] = biological target: Sen1-TAP (wild-type Sen1 fused to a TAP tag) (S. cerevisiae) (UniProt Q00416); test: affinity purification with mass spectrometry; Sen1-TAP or Sen1-3–TAP as bait; yeast lysates; untagged control
[2] = biological target: TAP-Sen1 (full-length Sen1 fused to a tandem affinity purification tag, expressed from pGAL1) (S. cerevisiae) (UniProt Q00416); test: affinity purification with mass spectrometry; TAP-tagged Sen1 versions (full length, ΔNTD, NTD) overexpressed from pGAL1 as baits; yeast lysates in 10 mM sodium phosphate pH 7.5, 200 mM sodium acetate, 0.25% NP-40, treated with RNase A; IgG Sepharose; elution by TEV cleavage; untagged control
[3] = biological target: T1, TAP-Sen1ΔNTD (Sen1 lacking the N-terminal domain, TAP-tagged, expressed from pGAL1) (S. cerevisiae); test: as above
[4] = biological target: T2, TAP-NTD (isolated N-terminal domain of Sen1, TAP-tagged, expressed from pGAL1) (S. cerevisiae); test: as above

binding [1] | binding [2] | binding [3] | binding [4] | Binder
binds | binds | no binding | – | Rpc25 (protein, UniProt P35718 1-212) MFILSKIADLVRIPPDQFHRDTISAITHQLNNKFANKIIPNVGLCITIYDLLTVEEGQLKPGDGSSYINVTFRAVVFKPFLGEIVTGWISKCTAEGIKVSLLGIFDDIFIPQNMLFEGCYYTPEESAWIWPMDEETKLYFDVNEKIRFRIEREVFVDVKPKSPKERELEERAQLENEIEGKNEETPQNEKPPAYALLGSCQTDGMGLVSWWE
binds | binds | no binding | binds | Rpc37 (protein, UniProt P36121 1-282) MSIDNKLFVTEEDEEDRTQDRADVEDESNDIDMIADENGTNSAIANEQEEKSEEVKAEDDTGEEEEDDPVIEEFPLKISGEEESLHVFQYANRPRLVGRKPAEHPFISAARYKPKSHLWEIDIPLDEQAFYNKDKAESEWNGVNVQTLKGVGVENNGQYAAFVKDMQVYLVPIERVAQLKPFFKYIDDANVTRKQEDARRNPNPSSQRAQVVTMSVKSVNDPSQNRLTGSLLAHKVADEEANIELTWAEGTFEQFKDTIVKEAEDKTLVALEKQEDYIDNLV
binds | binds | no binding | binds | Rpc82 (protein, UniProt P32349 1-654) MDELLGEALSAENQTGESTVESEKLVTPEDVMTISSLEQRTLNPDLFLYKELVKAHLGERAASVIGMLVALGRLSVRELVEKIDGMDVDSVKTTLVSLTQLRCVKYLQETAISGKKTTYYYYNEEGIHILLYSGLIIDEIITQMRVNDEEEHKQLVAEIVQNVISLGSLTVEDYLSSVTSDSMKYTISSLFVQLCEMGYLIQISKLHYTPIEDLWQFLYEKHYKNIPRNSPLSDLKKRSQAKMNAKTDFAKIINKPNELSQILTVDPKTSLRIVKPTVSLTINLDRFMKGRRSKQLINLAKTRVGSVTAQVYKIALRLTEQKSPKIRDPLTQTGLLQDLEEAKSFQDEAELVEEKTPGLTFNAIDLARHLPAELDLRGSLLSRKPSDNKKRSGSNAAASLPSKKLKTEDGFVIPALPAAVSKSLQESGDTQEEDEEEEDLDADTEDPHSASLINSHLKILASSNFPFLNETKPGVYYVPYSKLMPVLKSSVYEYVIASTLGPSAMRLSRCIRDNKLVSEKIINSTALMKEKDIRSTLASLIRYNSVEIQEVPRTADRSASRAVFLFRCKETHSYNFMRQNLEWNMANLLFKKEKLKQENSTLLKKANRDDVKGRENELLLPSELNQLKMVNERELNVFARLSRLLSLWEVFQMA
binds | binds | no binding | binds | Rpc128 (protein, UniProt P22276 1-1149) MVAATKRRKTHIHKHVKDEAFDDLLKPVYKGKKLTDEINTAQDKWHLLPAFLKVKGLVKQHLDSFNYFVDTDLKKIIKANQLILSDVDPEFYLKYVDIRVGKKSSSSTKDYLTPPHECRLRDMTYSAPIYVDIEYTRGRNIIMHKDVEIGRMPIMLRSNKCILYDADESKMAKLNECPLDPGGYFIVNGTEKVILVQEQLSKNRIIVEADEKKGIVQASVTSSTHERKSKTYVITKNGKIYLKHNSIAEEIPIAIVLKACGILSDLEIMQLVCGNDSSYQDIFAVNLEESSKLDIYTQQQALEYIGAKVKTMRRQKLTILQEGIEAIATTVIAHLTVEALDFREKALYIAMMTRRVVMAMYNPKMIDDRDYVGNKRLELAGQLISLLFEDLFKKFNNDFKLSIDKVLKKPNRAMEYDALLSINVHSNNITSGLNRAISTGNWSLKRFKMERAGVTHVLSRLSYISALGMMTRISSQFEKSRKVSGPRALQPSQFGMLCTADTPEGEACGLVKNLALMTHITTDDEEEPIKKLCYVLGVEDITLIDSASLHLNYGVYLNGTLIGSIRFPTKFVTQFRHLRRTGKVSEFISIYSNSHQMAVHIATDGGRICRPLIIVSDGQSRVKDIHLRKLLDGELDFDDFLKLGLVEYLDVNEENDSYIALYEKDIVPSMTHLEIEPFTILGAVAGLIPYPHHNQSPRNTYQCAMGKQAIGAIAYNQFKRIDTLLYLMTYPQQPMVKTKTIELIDYDKLPAGQNATVAVMSYSGYDIEDALVLNKSSIDRGFGRCETRRKTTTVLKRYANHTQDIIGGMRVDENGDPIWQHQSLGPDGLGEVGMKVQSGQIYINKSVPTNSADAPNPNNVNVQTQYREAPVIYRGPEPSHIDQVMMSVSDNDQALIKVLLRQNRRPELGDKFSSRHGQKGVCGIIVKQEDMPFNDQGIVPDIIMNPHGFPSRMTVGKMIELISGKAGVLNGTLEYGTCFGGSKLEDMSKILVDQGFNYSGKDMLYSGITGECLQAYIFFGPIYYQKLKHMVLDKMHARARGPRAVLTRQPTEGRSRDGGLRLGEMERDCVIAYGASQLLLERLMISSDAFEVDVCDKCGLMGYSGWCTTCKSAENIIKMTIPYAAKLLFQELLSMNIAPRLRLEDIFQQ
binds | binds | no binding | binds | Rpc34 (protein, UniProt P32910 1-317) MSGMIENGLQLSDNAKTLHSQMMSKGIGALFTQQELQKQMGIGSLTDLMSIVQELLDKNLIKLVKQNDELKFQGVLESEAQKKATMSAEEALVYSYIEASGREGIWSKTIKARTNLHQHVVLKCLKSLESQRYVKSVKSVKFPTRKIYMLYSLQPSVDITGGPWFTDGELDIEFINSLLTIVWRFISENTFPNGFKNFENGPKKNVFYAPNVKNYSTTQEILEFITAAQVANVELTPSNIRSLCEVLVYDDKLEKVTHDCYRVTLESILQMNQGEGEPEAGNKALEDEEEFSIFNYFKMFPASKHDKEVVYFDEWTI
binds | binds | – | binds | Rpc53 (protein, UniProt P25441 1-422) MSSNKGNGRLPSLKDSSSNGGGSAKPSLKFKPKAVARKSKEEREAAASKVKLEEESKRGNDKKHFNNKNKRVTGAGGQQRRMAKYLNNTHVISSGPLAAGNFVSEKGDLRRGFIKSEGSGSSLVQKGLETIDNGAESSENEAEDDDNEGVASKSKKKFNMGKEFEARNLIEDEDDGESEKSSDVDMDDEEWRSKRIEQLFPVRPVRVRHEDVETVKREIQEALSEKPTREPTPSVKTEPVGTGLQSYLEERERQVNEKLADLGLEKEFQSVDGKEAAAELELLNADHQHILRKLKKMNNKPERFMVFQLPTRLPAFERPAVKEEKEDMETQASDPSKKKKNIKKKDTKDALSTRELAGKVGSIRVHKSGKLSVKIGNVVMDIGKGAETTFLQDVIALSIADDASSAELLGRVDGKIVVTPQI

These are yes or no findings as the source states them, for the method shown. In cells and extracts the contact can be indirect. Here binding means that the protein was enriched with, or labelled near, the bait; the list need not be complete. For some of these results: No binding means not detected with the bait. For some of these results: Sequences can lack the tags named with a protein.
